# Data as given in the supplement of paper PMC8007513.
# This is one part of the list. Repeats are few or missing, and single values can be far off.
# Test system: Saccharomyces cerevisiae BY4743
# Assay: growth (OD600) with compound + IPBC relative to untreated control; higher = less growth inhibition
# Settings: compound concentration: 133 uM; IPBC concentration: 0.5 ug/ml; 20 h
# Method: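 NMCCC compounds (133 uM) combined with IPBC (0.5 ug/ml) against Saccharomyces cerevisiae BY4743 in YPD, 96-well plates. Growth was read as OD600 at 20 h and expressed as % of the untreated control. Single pass.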
row,Compound,growth
1,CCOC(F)(C(F)(F)F)C(F)(F)OC(F)(CC(F)(F)F)\C1=N\CCN1 (stereo not drawn) + CCCCNC(=O)OCC#CI [3-iodo-2-propynyl butylcarbamate (IPBC)],100%
2,Cc1ccc2c(c1)C(=O)CCCS2(=O)=O + CCCCNC(=O)OCC#CI [3-iodo-2-propynyl butylcarbamate (IPBC)],109%
3,COc1ccc(C(CC(=O)O)NS(=O)(=O)c2ccc3c(c2)N(C(C)=O)CC(C)O3)cc1 (stereo not drawn) + CCCCNC(=O)OCC#CI [3-iodo-2-propynyl butylcarbamate (IPBC)],101%
4,CCCCN1\C(=N/[S](=O)(=O)C2=CC(=CC=C12)C(=O)NCCN3CCOCC3)C + CCCCNC(=O)OCC#CI [3-iodo-2-propynyl butylcarbamate (IPBC)],94.1%
5,CC(C)c1cc(C(=O)N2CCN(c3ccccc3F)CC2)cs1 + CCCCNC(=O)OCC#CI [3-iodo-2-propynyl butylcarbamate (IPBC)],46%
6,CCn1nc(C)c(CNS(=O)(=O)c2ccc(C)cc2C)c1C + CCCCNC(=O)OCC#CI [3-iodo-2-propynyl butylcarbamate (IPBC)],94.2%
7,O=C1NC(c2cc(Br)cs2)Oc2ccccc21 (stereo not drawn) + CCCCNC(=O)OCC#CI [3-iodo-2-propynyl butylcarbamate (IPBC)],103%
8,CCN(CC)S(=O)(=O)c1cccc(C(=O)N[C@H](C(=O)Nc2ccc3c(c2)OCCO3)C(C)C)c1 + CCCCNC(=O)OCC#CI [3-iodo-2-propynyl butylcarbamate (IPBC)],109%
